# PubChem BioAssay AID540276 (National Center for Advancing Translational Sciences (NCATS), 2011)
# Screen size: about 300,000 compounds; about 5,400 (1.8%) were called active. Inconclusive results, whose numbers are uncertain, are shown with a selection of clear calls. Calls follow the shape of the full dose curve; tested in HEK293 cells. Potencies beside an inconclusive call are fits to weak or partial responses and may not hold up.
# Test: qHTS for inhibitors of binding or entry into cells for Marburg Virus
# Conditions: Marburg virus pseudotyped entry inhibition, cell reporter; series mostly up to 37.8 µM
# Potency is read from the fitted curve at half-maximal effect.
row,SMILES,Potency
1,CC(=O)OC12CC3CC(C1)C(=NO)C(C3)C2,"inconclusive: 31.6 µM [activator, single point]"
2,COC(=O)c1ccc(NC(=O)c2ccc(N(C)S(C)(=O)=O)cc2)cc1,"inconclusive: 3.26 µM [inhibitor, full curve, poor fit]"
3,Nc1nc2c(nc(Br)n2C2O[C@H]3COP(=O)(O)O[C@@H]3C2O)c(=O)[nH]1 (stereo partly drawn),"inconclusive: 0.316 µM [inhibitor, partial curve, poor fit]"
4,CC(=O)Nc1cccc(OCCOc2cccc([N+](=O)[O-])c2)c1,"inconclusive: 15.8 µM [activator, partial curve, poor fit]"
5,CCc1ccc2[nH]c(=O)c(CN(CCN3CCCC3)C(=O)NC3CCCCC3)cc2c1,"inconclusive: 22.4 µM [inhibitor, single point]"
6,O=C(Nc1ccccc1F)c1ccc(CSc2ncccn2)cc1,"inconclusive: 8.91 µM [inhibitor, single point]"
7,CC(=O)Nc1ccc(NC(=O)c2cccc(Oc3ccccc3)c2)cc1,"inconclusive: 0.562 µM [inhibitor, full curve, poor fit]"
8,COc1ccc(CCN2C(=S)N(C)C(=O)C2CC(=O)Nc2ccc(OC)cc2)cc1 (stereo not drawn),"inconclusive: 12.6 µM [inhibitor, partial curve, poor fit]"
9,O=C(NNc1cc(C(F)(F)F)nc2ccccc12)Nc1cccc(Cl)c1,"inconclusive: 17.8 µM [inhibitor, partial curve, poor fit]"
10,Cc1nc(-c2ccc(NC(=O)C3CCCCC3)cc2)cs1,inactive
11,C/C(=N/N=C/c1ccccc1O)c1ccccc1O,"inconclusive: 2.82 µM [activator, single point]"
12,CCOc1ccc(S(=O)(=O)N2CCN(CC(O)COc3cccc([N+](=O)[O-])c3)CC2)cc1 (stereo not drawn),"inconclusive: 8.91 µM [inhibitor, partial curve, poor fit]"
13,c1ccc(OCc2nc3ccccc3s2)cc1,"inconclusive: 0.0046 µM [activator, full curve, poor fit]"
14,COc1cc(C(=O)N/N=C/c2ccsc2C)cc(OC)c1OC,"inconclusive: 0.112 µM [inhibitor, full curve, poor fit]"
15,Cc1ccc(OCCOCCNC(C)C)c(Br)c1,"inconclusive: 11.2 µM [inhibitor, partial curve]"
16,Cc1ccc2nc(Nc3ccc(C)c(F)c3)c3nncn3c2c1,inactive
17,CCCN(CCC)C(=S)NC(=O)c1ccc(-c2ccccc2)cc1,"inconclusive: 29.1 µM [inhibitor, single point]"
18,COc1ccccc1CN1C(=O)CN(C2CCCCCC2)C(=O)C1c1ccc(F)cc1 (stereo not drawn),"inconclusive: 14.6 µM [inhibitor, partial curve]"
19,Cn1c(=O)c2c(O)c(C=NCc3ccccc3)c(=O)n(C)c2n(C)c1=O,inactive
20,COC(=O)c1ccc(NC(=O)CNC(=O)C2CCCCC2)c(C)c1,inactive
21,CCCCn1cnc2c(SCc3ccc(Cl)cc3)nc(N)nc21,"inconclusive: 17.8 µM [inhibitor, single point]"
22,OC(CN1CC=C(/C=C/c2ccc(Br)cc2)CC1)c1ccccc1 (stereo not drawn),active: 11.2 µM
23,Cc1ccc(C)c(NC(=O)CN(C)C(=O)c2ccc3[nH]c4c(c3c2)CC(C)CC4)c1 (stereo not drawn),inactive

# As a working copy, 5 of the compounds above:
row,SMILES,Potency
15,Cc1ccc(OCCOCCNC(C)C)c(Br)c1,"inconclusive: 11.2 µM [inhibitor, partial curve]"
16,Cc1ccc2nc(Nc3ccc(C)c(F)c3)c3nncn3c2c1,inactive
17,CCCN(CCC)C(=S)NC(=O)c1ccc(-c2ccccc2)cc1,"inconclusive: 29.1 µM [inhibitor, single point]"
18,COc1ccccc1CN1C(=O)CN(C2CCCCCC2)C(=O)C1c1ccc(F)cc1 (stereo not drawn),"inconclusive: 14.6 µM [inhibitor, partial curve]"
19,Cn1c(=O)c2c(O)c(C=NCc3ccccc3)c(=O)n(C)c2n(C)c1=O,inactive

# Going on with the list.

row,SMILES,Potency
1,COc1cccc(-c2csc(N3CCN(C(=O)NC45CC6CC(CC(C6)C4)C5)CC3)n2)c1,"inconclusive: 22.4 µM [inhibitor, single point]"
2,Cc1nsc2nc3c(F)c(F)c(F)c(F)c3cc12,"inconclusive: 15.8 µM [inhibitor, single point]"
3,CN(C(=O)c1cc(-c2ccc3c(c2)OCO3)on1)c1ccccc1,"inconclusive: 8.91 µM [inhibitor, partial curve, poor fit]"
4,COc1ccc(C(=O)Nc2ccccc2C(=O)Nc2ccc(C(=O)O)cc2)cc1,inactive
5,COc1cccc(C(=O)NCC(=O)NCc2cc(=O)n(C)c(=O)n2C)c1OC,"inconclusive: 2.24 µM [inhibitor, partial curve, poor fit]"
6,COc1ccc(CCC(=O)NNC(=O)Cn2nc(C)cc2C)cc1,inactive
7,CCc1ccc2ncc(S(=O)(=O)c3ccc(C)c(C)c3)c(N3CCCC3)c2c1,"inconclusive: 12.6 µM [inhibitor, partial curve, poor fit]"
8,COc1ccc(OC)c(NC(=O)CCCN2C(=S)NC(C)(C)CC2C)c1 (stereo not drawn),"inconclusive: 11.2 µM [inhibitor, single point]"
9,COc1ccccc1NC(=O)CN1CCC(c2nc3ccc(C)cc3[nH]2)CC1,"inconclusive: 35.5 µM [inhibitor, single point]"
10,COc1ccc(OC)c(-c2c(C#N)c(N)nc3c2c(=O)nc2sccn23)c1,inactive
11,COC(=O)c1sccc1NC(=O)c1c(C)noc1C,"inconclusive: 2.91 µM [activator, full curve, poor fit]"
12,Cc1nc2cc(NCc3nc4ccccc4n3Cc3ccccc3)ccc2n1C,active: 10 µM
13,O=[N+]([O-])c1ccc(-c2nc(-c3cccs3)c(-c3cccs3)[nH]2)cc1,"inconclusive: 14.1 µM [inhibitor, partial curve, poor fit]"
14,COc1ccc(C/C(N)=N/OC(=O)c2cccc([N+](=O)[O-])c2)cc1,"inconclusive: 35.5 µM [inhibitor, single point]"
15,COC(=O)NC(/C=C/c1ccco1)[C@@]1(C(=O)OC)CCCC1=O (stereo partly drawn),inactive
16,CCOc1cc(-c2ccc3c(c2)OCO3)cc(=O)c2c(C)oc(C)c12,inactive
17,Cc1cc(=O)oc2c(C)c3occc3cc12,inactive
18,Cc1nn(-c2ccccc2)c2c1c(C)c(CCC(=O)N1CCOCC1)c(=O)n2C,"inconclusive: 35.5 µM [inhibitor, single point]"
19,Cc1ccccc1CN1CCc2c(OCC(=O)N3CCCCC3)cccc2C1=O,"inconclusive: 3.16 µM [inhibitor, partial curve, poor fit]"
20,Cc1cccc(N2CCN(C(=O)C(NS(=O)(=O)c3cccs3)c3ccccc3)CC2)c1C (stereo not drawn),inactive
21,Cc1ccccc1Cn1nc(C)c(NC(=O)c2cc3nc(-c4ccco4)cc(C(F)(F)F)n3n2)c1C,"inconclusive: 10 µM [inhibitor, partial curve]"
22,O=C(NC(=S)Nc1cccc(C(F)(F)F)c1)c1csnn1,inactive
23,O=[N+]([O-])c1cccc(S(=O)(=O)N/N=C/c2ccc(O)cc2)c1,"inconclusive: 6.31 µM [activator, single point]"

row,SMILES,Potency
1,Cc1cc(C)c2nc(N3CCCC(C(=O)N4CCN(c5ncccn5)CC4)C3)sc2c1 (stereo not drawn),"inconclusive: 25.9 µM [inhibitor, single point]"
2,Cc1c(C(=O)C(=O)NCC2CCCO2)c2ccccc2n1C (stereo not drawn),"inconclusive: 1.12 µM [inhibitor, partial curve, poor fit]"
3,CCOC(=O)c1sc2nc(CC(=O)OC)nc(N3CCN(c4ccc(OC)cc4)CC3)c2c1C,"inconclusive: 11.6 µM [inhibitor, partial curve, poor fit]"
4,CCS(=O)(=O)N1CCN(C(=O)c2cccc3ccccc23)CC1,"inconclusive: 3.98 µM [inhibitor, single point]"
5,Cc1ccc(C(=O)Nc2c(C)cc(-c3ccc(Cl)cc3)oc2=O)cc1,"inconclusive: 6.31 µM [activator, partial curve, poor fit]"
6,O=C(/C=C/c1ccco1)N1CCN(c2ncccn2)CC1,"inconclusive: 7.08 µM [activator, full curve, poor fit]"
7,CC(C)(C)C1=CC(=Nc2ccccc2N)C=C(C(C)(C)C)C1=O,"inconclusive: 35.5 µM [inhibitor, single point]"
8,Cc1ccc(C)c(CN2C(=O)c3ccccc3S(=O)(=O)c3ccc(C(=O)NCCc4ccc(Cl)cc4)cc32)c1,"inconclusive: 7.08 µM [inhibitor, partial curve, poor fit]"
9,O=c1[nH]nc(-c2n[nH]c(=O)o2)o1,inactive
10,O/N=C/c1cn(-c2ccccc2)nc1-c1ccc2c(c1)OCCO2,inactive
11,O=C(CCCSc1nnc(SCCCC(=O)c2ccc(F)cc2)s1)c1ccc(F)cc1,"inconclusive: 32.6 µM [inhibitor, single point]"
12,Cc1ccc(C)c2c1[nH]c1ccccc12,inactive
13,O=C(COc1ccc(F)cc1Cl)Nc1cc(S(=O)(=O)N2CCOCC2)ccc1N1CCCCC1,"inconclusive: 11.2 µM [inhibitor, partial curve, poor fit]"
14,COc1cc(OC)c(C=CC(=O)c2ccccc2O)c(OC)c1,"inconclusive: 5.62 µM [activator, single point]"
15,Cc1ccc(O)c(NC(=O)CSc2ccc(Cl)cc2)c1,"inconclusive: 7.08 µM [inhibitor, partial curve, poor fit]"
16,CCN1C(=O)S/C(=C/c2cn(C)c3ccccc23)C1=O,inactive
17,C=CCOC(=O)C1=C(C)NC(SCC(=O)Nc2ccc(C)c(Cl)c2)=C(C#N)C1c1ccco1 (stereo not drawn),active: 10 µM
18,O=C(Nc1ccccc1)C(=O)Nc1ccccn1,"inconclusive: 7.3 µM [inhibitor, partial curve, poor fit]"
19,c1csc(-c2noc(CN3CCN4CCCC4C3)n2)c1 (stereo not drawn),inactive
20,Cn1c(SCC(=O)c2ccc(F)cc2)nnc1-c1ccccc1N,inactive
21,O=C(Oc1ccccc1)[C@H]1O[C@H]1c1ccccc1,"inconclusive: 1.19 µM [activator, single point]"
22,Cc1nc2ccc(NS(=O)(=O)c3ccc(F)cc3F)cc2s1,"inconclusive: 0.199 µM [inhibitor, partial curve, poor fit]"
